Reference: PubChem BioAssay AID1866 (The Scripps Research Institute Molecular Screening Center, 2009)
Out of some 1,300 compounds screened, about 40 (3%) were called active.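 Rule for the calls: active = inhibition above that campaign's mean inhibition plus 3 SD (cut at about 0.46% in these data); inactive = the rest.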 This is a selection; strong and weak results do not stand in their true shares.

The chains behind the UniProt entries cited, without tags or fusion partners.
UniProt P62593, whole entry, looked up: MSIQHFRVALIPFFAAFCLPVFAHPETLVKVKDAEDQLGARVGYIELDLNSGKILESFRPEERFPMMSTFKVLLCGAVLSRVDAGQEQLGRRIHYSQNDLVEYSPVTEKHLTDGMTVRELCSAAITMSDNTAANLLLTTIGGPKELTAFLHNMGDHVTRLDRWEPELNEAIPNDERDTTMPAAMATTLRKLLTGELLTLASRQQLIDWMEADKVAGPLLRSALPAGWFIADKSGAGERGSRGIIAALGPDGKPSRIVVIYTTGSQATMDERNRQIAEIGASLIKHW

Molecular target: Beta-lactamase TEM (Escherichia coli) (UniProt P62593)
Assay: inhibition of purified E. coli TEM-1 enzyme – biochemical, epi-absorbance, HTS, counter-screen for VIM-2 inhibitor project (AID 1866);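 note: 0% = TEM-1 with DMSO and 100% = TEM-1 with 100 µM potassium clavulanate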
Details: Purified TEM-1, nitrocefin hydrolysis, epi-absorbance fluorescence; at 5.6 µM; stronger effect = higher value

Row | Structure (SMILES) | inhibition
1 | Cc1cc(=O)oc2c(C)c(OCC(=O)N3CCN(Cc4ccc5c(c4)OCO5)CC3)ccc12 | inactive: -8.14%
2 | Cc1cc(OCc2cc(C(=O)O)oc2C)c2c3c(c(=O)oc2c1)CCCC3 | inactive: -10.4%
